The subject of this data set is hind limb muscles of adult Sprague-Dawley rats. The data set can be described thus: In vivo biocompatibility and degradation, macroscopic and IHC, incision closure. The conditions noted are these: for Degree of degradation: one value per rat. An excerpt:
Small surgical incisions (0.2 cm in depth, 1 cm in length) were made in both hind limb muscles of adult Sprague-Dawley rats (n=4). One incision was closed by 1 drop of various cyanoacrylate formulations dispensed through a surgical syringe needle (25 G) and the other was closed by absorbable suture (VICRYL, Ethicon) with and without injection of equivalent volumes of PEG included in cyanoacrylate formulations as controls. In order to ensure proper identification of the injury sites, a single non-absorb-able suture was placed adjacent to each repaired incision site.
At 7 days, 4 weeks, and 12 weeks post-surgery, tissue explants containing the repaired incision sites and surrounding muscle tissue were retrieved. The explants were photographed to document the macroscopic tissue response to the various cyanoacrylate formulations and suture controls (FIGS. 3A-3H (7 days), 4A-4H (4 weeks), and 5A-5H (12 weeks)). Identification of specific cells types associated with wound healing and inflammation was performed by histological sectioning and immunohistochemical (IHC) staining. Tissue explants were embedded in Optimal cutting temperature (OCT) compound and sectioned perpendicular to the surface of the repaired muscle tissue. Sections ([…] thick) were transferred to glass microscope slides, fixed with methanol, permeabilized with 0.025% Triton in PBS solution, and stained with primary antibodies directed against vimentin (fibroblasts) and rat macrophages, and Alexa-594 conjugated secondary antibodies. DAPI mounting media was used to counterstain all cellular nuclei. Samples were imaged by fluorescence microscopy (FIGS. 6A-6P, 7A-7P, 8A-8P). Specific cell types are identified in red, sutures and various cyanoacrylate adhesives are shown in green, and cellular nuclei are shown in blue. […]

Take `C=C(C#N)C(=O)OCCCCCCCC` [OCA, octylcyanoacrylate]: the “in vivo degradation (macroscopic)” value (4 and 12 weeks) is “minimal degradation”. Also, the Degree of degradation entry (4 weeks post-surgery) is “no” and the Degree of degradation entry (7 days post-surgery) was “no”.
methoxyisopropylcyanoacrylate [MCA]: the Degree of degradation entry (7 days post-surgery) is listed as “no”.

For the origin of these results see patent US9878041B2, “Cyanoacrylate tissue adhesives” (Adhezion Biomedical, LLC, priority 2007, dated 2018).
